The source of these data is article PMC6639074.

Amino acid sequences for entries named in this document (tags omitted). A change or cut given only in a name is not applied to a line headed by its entry. Chains listed by the source or under a name are the forms on record and can include a tag or linker.
UniProt P20340: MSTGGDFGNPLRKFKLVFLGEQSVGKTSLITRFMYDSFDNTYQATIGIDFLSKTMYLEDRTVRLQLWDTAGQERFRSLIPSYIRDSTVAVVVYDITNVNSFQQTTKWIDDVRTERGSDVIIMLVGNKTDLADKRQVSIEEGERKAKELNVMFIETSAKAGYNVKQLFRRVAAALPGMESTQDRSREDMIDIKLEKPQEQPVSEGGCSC
UniProt P61586: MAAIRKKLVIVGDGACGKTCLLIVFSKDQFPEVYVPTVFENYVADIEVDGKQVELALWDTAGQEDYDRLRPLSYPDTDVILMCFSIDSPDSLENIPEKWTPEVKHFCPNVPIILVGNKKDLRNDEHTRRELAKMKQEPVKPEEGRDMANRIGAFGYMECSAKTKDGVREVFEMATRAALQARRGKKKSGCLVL
Rab5A(Q79L)-BirA*-HA-MAO (P20339, form named): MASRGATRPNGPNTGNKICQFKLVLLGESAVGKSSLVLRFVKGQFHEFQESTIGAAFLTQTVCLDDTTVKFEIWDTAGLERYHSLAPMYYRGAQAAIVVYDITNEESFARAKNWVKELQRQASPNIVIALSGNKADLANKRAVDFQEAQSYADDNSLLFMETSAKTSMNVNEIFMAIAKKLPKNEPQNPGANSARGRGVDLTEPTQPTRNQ

No constants are given. Whether binding was seen depends on the method and setting. In cells and extracts the contact can be indirect. Here binding means that the protein was enriched with, or labelled near, the bait; the list need not be complete.

Common to all, as to assay: proximity labelling; MitoID: GTPase-BirA*-HA-MAO chimera on mitochondria of transiently transfected HEK293T cells, 50 uM biotin 18 h, streptavidin beads, mass spectrometry, biological triplicates; hits by WD scores and volcano plots against the GDP-locked forms
The target of assay [1] is Rab11A(S25N)-BirA*-HA-MAO (human).
In assay [2] the target is Rab11A(Q69L)-BirA*-HA-MAO (human).
In assay [3] the target is Rab6A(Q72L)-BirA*-HA-MAO (human) (UniProt P20340).
In assay [4] the target is RhoA(Q63L)-BirA*-HA-MAO (human) (UniProt P61586).
Assay [5] deals with Rab5A(Q79L)-BirA*-HA-MAO (human) (UniProt P20339).

B1: CHML (protein, UniProt P26374 1-656)
chain: MADNLPTEFDVVIIGTGLPESILAAACSRSGQRVLHIDSRSYYGGNWASFSFSGLLSWLKEYQQNNDIGEESTVVWQDLIHETEEAITLRKKDETIQHTEAFCYASQDMEDNVEEIGALQKNPSLGVSNTFTEVLDSALPEESQLSYFNSDEMPAKHTQKSDTEISLEVTDVEESVEKEKYCGDKTCMHTVSDKDGDKDESKSTVEDKADEPIRNRITYSQIVKEGRRFNIDLVSKLLYSQGLLIDLLIKSDVSRYVEFKNVTRILAFREGKVEQVPCSRADVFNSKELTMVEKRMLMKFLTFCLEYEQHPDEYQAFRQCSFSEYLKTKKLTPNLQHFVLHSIAMTSESSCTTIDGLNATKNFLQCLGRFGNTPFLFPLYGQGEIPQGFCRMCAVFGGIYCLRHKVQCFVVDKESGRCKAIIDHFGQRINAKYFIVEDSYLSEETCSNVQYKQISRAVLITDQSILKTDLDQQTSILIVPPAEPGACAVRVTELCSSTMTCMKDTYLVHLTCSSSKTAREDLESVVKKLFTPYTETEINEEELTKPRLLWALYFNMRDSSGISRSSYNGLPSNVYVCSGPDCGLGNEHAVKQAETLFQEIFPTEEFCPPPPNPEDIIFDGDDKQPEAPGTNNVVMAKLESSEESKNLESPEKHLQN
B1: in assay [1], the binding entry is reported as “binds”.

B2: INPP5F (protein, UniProt Q9Y2H2 1-1132)
chain: MELFQAKDHYILQQGERALWCSRRDGGLQLRPATDLLLAWNPICLGLVEGVIGKIQLHSDLPWWLILIRQKALVGKLPGDHEVCKVTKIAVLSLSEMEPQDLELELCKKHHFGINKPEKIIPSPDDSKFLLKTFTHIKSNVSAPNKKKVKESKEKEKLERRLLEELLKMFMDSESFYYSLTYDLTNSVQRQSTGERDGRPLWQKVDDRFFWNKYMIQDLTEIGTPDVDFWIIPMIQGFVQIEELVVNYTESSDDEKSSPETPPQESTCVDDIHPRFLVALISRRSRHRAGMRYKRRGVDKNGNVANYVETEQLIHVHNHTLSFVQTRGSVPVFWSQVGYRYNPRPRLDRSEKETVAYFCAHFEEQLNIYKKQVIINLVDQAGREKIIGDAYLKQVLLFNNSHLTYVSFDFHEHCRGMKFENVQTLTDAIYDIILDMKWCWVDEAGVICKQEGIFRVNCMDCLDRTNVVQAAIARVVMEQQLKKLGVMPPEQPLPVKCNRIYQIMWANNGDSISRQYAGTAALKGDFTRTGERKLAGVMKDGVNSANRYYLNRFKDAYRQAVIDLMQGIPVTEDLYSIFTKEKEHEALHKENQRSHQELISQLLQSYMKLLLPDDEKFHGGWALIDCDPSLIDATHRDVDVLLLLSNSAYYVAYYDDEVDKVNQYQRLSLENLEKIEIGPEPTLFGKPKFSCMRLHYRYKEASGYFHTLRAVMRNPEEDGKDTLQCIAEMLQITKQAMGSDLPIIEKKLERKSSKPHEDIIGIRSQNQGSLAQGKNFLMSKFSSLNQKVKQTKSNVNIGNLRKLGNFTKPEMKVNFLKPNLKVNLWKSDSSLETMENTGVMDKVQAESDGDMSSDNDSYHSDEFLTNSKSDEDRQLANSLESVGPIDYVLPSCGIIASAPRLGSRSQSLSSTDSSVHAPSEITVAHGSGLGKGQESPLKKSPSAGDVHILTGFAKPMDIYCHRFVQDAQNKVTHLSETRSVSQQASQERNQMTNQVSNETQSESTEQTPSRPSQLDVSLSATGPQFLSVEPAHSVASQKTPTSASSMLELETGLHVTPSPSESSSSRAVSPFAKIRSSMVQVASITQAGLTHGINFAVSKVQKSPPEPEIINQVQQNELKKMFIQCQTRIIQI
As to B2, the binding entry in assay [2], in assay [1] and in assay [3] was “binds” throughout.

B3: INPPL1/SHIP (protein, UniProt O15357 1-1258)
chain: MASACGAPGPGGALGSQAPSWYHRDLSRAAAEELLARAGRDGSFLVRDSESVAGAFALCVLYQKHVHTYRILPDGEDFLAVQTSQGVPVRRFQTLGELIGLYAQPNQGLVCALLLPVEGEREPDPPDDRDASDGEDEKPPLPPRSGSTSISAPTGPSSPLPAPETPTAPAAESAPNGLSTVSHDYLKGSYGLDLEAVRGGASHLPHLTRTLATSCRRLHSEVDKVLSGLEILSKVFDQQSSPMVTRLLQQQNLPQTGEQELESLVLKLSVLKDFLSGIQKKALKALQDMSSTAPPAPQPSTRKAKTIPVQAFEVKLDVTLGDLTKIGKSQKFTLSVDVEGGRLVLLRRQRDSQEDWTTFTHDRIRQLIKSQRVQNKLGVVFEKEKDRTQRKDFIFVSARKREAFCQLLQLMKNKHSKQDEPDMISVFIGTWNMGSVPPPKNVTSWFTSKGLGKTLDEVTVTIPHDIYVFGTQENSVGDREWLDLLRGGLKELTDLDYRPIAMQSLWNIKVAVLVKPEHENRISHVSTSSVKTGIANTLGNKGAVGVSFMFNGTSFGFVNCHLTSGNEKTARRNQNYLDILRLLSLGDRQLNAFDISLRFTHLFWFGDLNYRLDMDIQEILNYISRKEFEPLLRVDQLNLEREKHKVFLRFSEEEISFPPTYRYERGSRDTYAWHKQKPTGVRTNVPSWCDRILWKSYPETHIICNSYGCTDDIVTSDHSPVFGTFEVGVTSQFISKKGLSKTSDQAYIEFESIEAIVKTASRTKFFIEFYSTCLEEYKKSFENDAQSSDNINFLKVQWSSRQLPTLKPILADIEYLQDQHLLLTVKSMDGYESYGECVVALKSMIGSTAQQFLTFLSHRGEETGNIRGSMKVRVPTERLGTRERLYEWISIDKDEAGAKSKAPSVSRGSQEPRSGSRKPAFTEASCPLSRLFEEPEKPPPTGRPPAPPRAAPREEPLTPRLKPEGAPEPEGVAAPPPKNSFNNPAYYVLEGVPHQLLPPEPPSPARAPVPSATKNKVAITVPAPQLGHHRHPRVGEGSSSDEESGGTLPPPDFPPPPLPDSAIFLPPSLDPLPGPVVRGRGGAEARGPPPPKAHPRPPLPPGPSPASTFLGEVASGDDRSCSVLQMAKTLSEVDYAPAGPARSALLPGPLELQPPRGLPSDYGRPLSFPPPRIRESIQEDLAEEAPCLQGGRASGLGEAGMSAWLRAIGLERYEEGLVHNGWDDLEFLSDITEEDLEEAGVQDPAHKRLLLDTLQLSK
For the molecule B3, the binding entry in assay [4] is listed as “binds”.

B4: RTKN2 (protein, UniProt Q8IZC4 1-609)
chain: MEGPSLRGPALRLAGLPTQQDCNIQEKIDLEIRMREGIWKLLSLSTQKDQVLHAVKNLMVCNARLMAYTSELQKLEEQIANQTGRCDVKFESKERTACKGKIAISDIRIPLMWKDSDHFSNKERSRRYAIFCLFKMGANVFDTDVVNVDKTITDICFENVTIFNEAGPDFQIKVEVYSCCTEESSITNTPKKLAKKLKTSISKATGKKISSVLQEEDDEMCLLLSSAVFGVKYNLLAHTTLTLESAEDSFKTHNLSINGNEESSFWLPLYGNMCCRLVAQPACMAEDAFAGFLNQQQMVEGLISWRRLYCVLRGGKLYCFYSPEEIEAKVEPALVVPINKETRIRAMDKDAKKRIHNFSVINPVPGQAITQIFAVDNREDLQKWMEAFWQHFFDLSQWKHCCEELMKIEIMSPRKPPLFLTKEATSVYHDMSIDSPMKLESLTDIIQKKIEETNGQFLIGQHEESLPPPWATLFDGNHQMVIQKKVLYPASEPLHDEKGKKRQAPLPPSDKLPFSLKSQSNTDQLVKDNWGKTSVSQTSSLDTKLSTLMHHLQKPMAAPRKLLPARRNRLSDGEHTDTKTNFEAKPVPAPRQKSIKDILDPRSWLQAQV
As for B4, the binding result in assay [4] is recorded as “binds”.

B5: ABR (protein, UniProt Q12979 1-859)
chain: MEPLSHRGLPRLSWIDTLYSNFSYGTDEYDGEGNEEQKGPPEGSETMPYIDESPTMSPQLSARSQGGGDGVSPTPPEGLAPGVEAGKGLEMRKLVLSGFLASEEIYINQLEALLLPMKPLKATATTSQPVLTIQQIETIFYKIQDIYEIHKEFYDNLCPKVQQWDSQVTMGHLFQKLASQLGVYKAFVDNYKVALETAEKCSQSNNQFQKISEELKVKGPKDSKDSHTSVTMEALLYKPIDRVTRSTLVLHDLLKHTPVDHPDYPLLQDALRISQNFLSSINEDIDPRRTAVTTPKGETRQLVKDGFLVEVSESSRKLRHVFLFTDVLLCAKLKKTSAGKHQQYDCKWYIPLADLVFPSPEESEASPQVHPFPDHELEDMKMKISALKSEIQKEKANKGQSRAIERLKKKMFENEFLLLLNSPTIPFRIHNRNGKSYLFLLSSDYERSEWREAIQKLQKKDLQAFVLSSVELQVLTGSCFKLRTVHNIPVTSNKDDDESPGLYGFLHVIVHSAKGFKQSANLYCTLEVDSFGYFVSKAKTRVFRDTAEPKWDEEFEIELEGSQSLRILCYEKCYDKTKVNKDNNEIVDKIMGKGQIQLDPQTVETKNWHTDVIEMNGIKVEFSMKFTSRDMSLKRTPSKKQTGVFGVKISVVTKRERSKVPYIVRQCVEEVEKRGIEEVGIYRISGVATDIQALKAVFDANNKDILLMLSDMDINAIAGTLKLYFRELPEPLLTDRLYPAFMEGIALSDPAAKENCMMHLLRSLPDPNLITFLFLLEHLKRVAEKEPINKMSLHNLATVFGPTLLRPSEVESKAHLTSAADIWSHDVMAQVQVLLYYLQHPPISFAELKRNTLYFSTDV
B5: the binding entry in assay [4] was “binds”.

B6: OSBPL11 (protein, UniProt Q9BXB4 1-747)
chain: MQGGEPVSTMKVSESEGKLEGQATAVTPNKNSSCGGGISSSSSSRGGSAKGWQYSDHMENVYGYLMKYTNLVTGWQYRFFVLNNEAGLLEYFVNEQSRNQKPRGTLQLAGAVISPSDEDSHTFTVNAASGEQYKLRATDAKERQHWVSRLQICTQHHTEAIGKNNPPLKSRSFSLASSSNSPISQRRPSQNAISFFNVGHSKLQSLSKRTNLPPDHLVEVREMMSHAEGQQRDLIRRIECLPTSGHLSSLDQDLLMLKATSMATMNCLNDCFHILQLQHASHQKGSLPSGTTIEWLEPKISLSNHYKNGADQPFATDQSKPVAVPEEQPVAESGLLAREPEEINADDEIEDTCDHKEDDLGAVEEQRSVILHLLSQLKLGMDLTRVVLPTFILEKRSLLEMYADFMSHPDLFIAITNGATAEDRMIRFVEYYLTSFHEGRKGAIAKKPYNPIIGETFHCSWKMPKSEVASSVFSSSSTQGVTNHAPLSGESLTQVGSDCYTVRFVAEQVSHHPPVSGFYAECTERKMCVNAHVWTKSKFLGMSIGVTMVGEGILSLLEHGEEYTFSLPCAYARSILTVPWVELGGKVSVNCAKTGYSASITFHTKPFYGGKLHRVTAEVKHNITNTVVCRVQGEWNSVLEFTYSNGETKYVDLTKLAVTKKRVRPLEKQDPFESRRLWKNVTDSLRESEIDKATEHKHTLEERQRTEERHRTETGTPWKTKYFIKEGDGWVYHKPLWKIIPTTQPAE
For the molecule B6, the binding entry in assay [2], in assay [1] and in assay [5] was “binds” in each case.
